Reference: patent publication US20220204563A1, “DELIVERY PEPTIDES AND METHODS OF USING THE SAME” (NATIONAL INSTITUTE FOR BIOTECHNOLOGY IN THE NEGEV LTD., priority 2019, published 2022)
Some entries share one result that the patent states for a list of compounds.

Assay: Dynamic light scattering (DLS) of dsRNA-peptide conjugates
Type: physicochemical
Conditions: peptide conjugated with 700 bp dsRNA (dsEGFR) at 1:1 ratio
Method: Constant amount of dsRNA (25 pmole) solution was mixed with an increasing amount of peptide solution in an Eppendorf vial (˜1.5 mL). The total conjugation reaction volume was completed to 15 μl with DEPC treated DDW. The solutions were incubated at room temperature for 20 minutes. To evaluate peptide-dsRNA conjugation, a 1.3% agarose gel was prepared in TAE buffer. Conjugates were mixed with equal volume of loading buffer (50% glycerol and 0.5 M EDTA). Peptide-dsRNA conjugates were separated for 30 minutes at 120 V. Fluorescent emission of conjugates in gels were scanned by using a Typhoon FLA 9500 gel system (GE Healthcare®).
In order to verify whether the Vg-derived peptide was capable to piggyback and internalize a large molecule such as a dsRNA into the oocytes, a conjugation approach between the peptide and dsRNA was developed. The Vg-TAMRA and the control-FITC peptides were synthesized with a cationic poly lysine-histidine tail (KH) to allow electrostatic interactions between the peptides and the negatively charged dsRNA. The dsRNA-peptide complexes prepared at different molar ratios (peptide/dsRNA ratio: 1, 5, 10, 20 and 30) were characterized with two different assays: dynamic light scattering (DLS) and separation on agarose gel.
dsRNA of 700 bp (dsEGFR) and another one a mix of 200 and 230 bp dsRNA (dsPAX6) were prepared (FIG. 3A). […]

## KHKHKHKHKHKHKHKHKHCDKNIIKPAYGSYKYVEAHQESVLRK-TAMRA (TAMRA) [KH9-Vg]
  Particle size (DLS): 400-500 μm
